# Laboratory results as given in the supplement of paper PMC4635364.
# Where a name gives a salt, the structure may show the parent alone. This is one part of the list. This data set is noisy: repeats of one test often differ as much as different tests do.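 Cells: ReNCell VM human fetal ventral-midbrain neural progenitors, differentiated mitogen-free. Blinded raters compared doublecortin-stained (early neurons) or tyrosine hydroxylase-stained (dopaminergic neurons) images with untreated wells, where 0 means no change. After repeats and both raters were averaged, compounds scoring 2 or above became hits for retesting.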
# Columns and labels:
# [1] = system: ReNCell VM; assay: neuronal differentiation score (DCX+ cell fraction vs untreated, manual image score) (score (-3 to 3)); higher = more neuronal differentiation; details: 2 uM, 2 weeks
# [2] = system: ReNCell VM; assay: dopaminergic neuron differentiation score (TH+ cell fraction vs untreated, manual image score) (score (0 to 3)); higher = more TH+ dopaminergic neuron differentiation; details: 2 uM, 4 weeks, BDNF 10 ng/ml + GDNF 10 ng/ml
smiles,measurement,setting,value
Cc1cc(C(C)(C)C)c(O)c(C(C)(C)C)c1,neuronal differentiation score,[1]; library: Spectrum,inactive: 0
same,dopaminergic neuron differentiation score,[2]; library: Spectrum,inactive: 0
CCCCN1CCCCC1C(=O)Nc1c(C)cccc1C (stereo unspecified),neuronal differentiation score,[1]; library: Spectrum,inactive: 0
same,dopaminergic neuron differentiation score,[2]; library: Spectrum,inactive: 0
COc1ccc(/C=C/C(=O)Nc2ccccc2C(=O)O)cc1OC,neuronal differentiation score,[1]; library: Spectrum,inactive: 0
same,dopaminergic neuron differentiation score,[2]; library: Spectrum,inactive: 0
CCCC(=O)Nc1ccc(OCC(O)CNC(C)C)c(C(C)=O)c1 (stereo unspecified) [Acebutolol hydrochloride],neuronal differentiation score,[1]; library: Prestwick,inactive: 0
same,dopaminergic neuron differentiation score,[2]; library: Prestwick,inactive: 0
Oc1ncnc2[nH]ncc12,neuronal differentiation score,[1]; library: Spectrum,inactive: 0
same,dopaminergic neuron differentiation score,[2]; library: Spectrum,inactive: 0
CC(C(=O)O)c1ccc2c(c1)[nH]c1ccc(Cl)cc12 (stereo unspecified) [Carprofen],neuronal differentiation score,[1]; library: Prestwick,inactive: 0
same,dopaminergic neuron differentiation score,[2]; library: Prestwick,inactive: 0
CC(=O)O[C@]1(C(C)=O)CC[C@H]2[C@@H]3C[C@H](C)C4=CC(=O)CC[C@]4(C)[C@H]3CC[C@@]21C,neuronal differentiation score,[1]; library: Spectrum,inactive: 0
same,dopaminergic neuron differentiation score,[2]; library: Spectrum,inactive: 0
S=C(S)N1CCCC1 [Pyrrolidinedithiocarbamate ammonium],neuronal differentiation score,[1]; library: Tocriscreen,inactive: 0
same,dopaminergic neuron differentiation score,[2]; library: Tocriscreen,inactive: 0
COc1ccccc1OCC(O)CN1CCN(CC(=O)Nc2c(C)cccc2C)CC1 (stereo unspecified) [Ranolazine dihydrochloride],neuronal differentiation score,[1]; library: LOPAC,inactive: 0
same,dopaminergic neuron differentiation score,[2]; library: LOPAC,inactive: 0
N[C@@H](Cc1ccc(F)cc1)C(=O)O [p-Fluoro-L-phenylalanine],neuronal differentiation score,[1]; library: LOPAC,inactive: 0
same,dopaminergic neuron differentiation score,[2]; library: LOPAC,inactive: 1
Nc1nccs1,neuronal differentiation score,[1]; library: Spectrum,inactive: 0
same,dopaminergic neuron differentiation score,[2]; library: Spectrum,inactive: 0
COc1c2occc2c(OC)c2c(=O)cc(C)oc12,neuronal differentiation score,[1]; library: Spectrum,inactive: 0
same,dopaminergic neuron differentiation score,[2]; library: Spectrum,inactive: 0
CC(=O)OCC(=O)[C@@]1(O)CC[C@H]2[C@@H]3C[C@H](C)C4=CC(=O)C=C[C@]4(C)[C@H]3[C@@H](O)C[C@@]21C [6alpha-METHYLPREDNISOLONE ACETATE],neuronal differentiation score,[1]; library: Spectrum,inactive: 0
same,dopaminergic neuron differentiation score,[2]; library: Spectrum,inactive: 0
CCSC(=N)N [EIT hydrobromide],neuronal differentiation score,[1]; library: Tocriscreen,inactive: 0
same,dopaminergic neuron differentiation score,[2]; library: Tocriscreen,inactive: 0
COC(=O)C1=C(C)NC(C)=C([N+](=O)[O-])[C@H]1c1ccccc1C(F)(F)F,neuronal differentiation score,[1]; library: Tocriscreen,inactive: 0
same,dopaminergic neuron differentiation score,[2]; library: Tocriscreen,inactive: 0
CC(=O)Oc1cc(-c2coc3cc(OC(C)=O)c(OC(C)=O)c(OC(C)=O)c3c2=O)cc(OC(C)=O)c1OC(C)=O,neuronal differentiation score,[1]; library: Spectrum,inactive: 0
same,dopaminergic neuron differentiation score,[2]; library: Spectrum,inactive: 0
Cc1cn[nH]c1 [4-Methylpyrazole hydrochloride],neuronal differentiation score,[1]; library: LOPAC,inactive: 0
same,dopaminergic neuron differentiation score,[2]; library: LOPAC,inactive: 0
CC1(C)O[C@@H]2[C@@H](CO[C@@]3(COS(N)(=O)=O)OC(C)(C)O[C@@H]23)O1,neuronal differentiation score,[1]; library: Spectrum,inactive: 0
same,dopaminergic neuron differentiation score,[2]; library: Spectrum,inactive: 0
CCCCCN(C)CCC(O)(P(=O)(O)O)P(=O)(O)O,neuronal differentiation score,[1]; library: Spectrum,inactive: 0
same,dopaminergic neuron differentiation score,[2]; library: Spectrum,inactive: 0
CC1CC(OC(=O)C(O)c2ccccc2)CC(C)(C)N1C (stereo unspecified) [Eucatropine hydrochloride],neuronal differentiation score,[1]; library: Prestwick,inactive: 0
same,dopaminergic neuron differentiation score,[2]; library: Prestwick,inactive: 0
"CN(C)c1nc(N)c(C(=O)NC(=N)N)nc1Cl [5-(N,N-Dimethyl)amiloride hydrochloride]",neuronal differentiation score,[1]; library: LOPAC,active: 2
same,dopaminergic neuron differentiation score,[2]; library: LOPAC,inactive: 0
N=c1ccn2c(n1)OC[C@H]1[C@H](O)[C@H](O)O[C@H]12,neuronal differentiation score,[1]; library: Natural,inactive: 0
same,dopaminergic neuron differentiation score,[2]; library: Natural,inactive: 0
CC[N+](CC)(CC)CC [Tetraethylammonium chloride],neuronal differentiation score,[1]; library: LOPAC,inactive: 0
same,dopaminergic neuron differentiation score,[2]; library: LOPAC,inactive: 0
Cc1nc(-c2ccc(OCC(C)C)c(C#N)c2)sc1C(=O)O,neuronal differentiation score,[1]; library: Spectrum,inactive: 0
same,dopaminergic neuron differentiation score,[2]; library: Spectrum,inactive: 0
CCC[C@H](N[C@@H](C)C(=O)N1[C@H](C(=O)O)C[C@@H]2CCCC[C@@H]21)C(=O)OCC,neuronal differentiation score,[1]; library: Spectrum,inactive: 0
same,dopaminergic neuron differentiation score,[2]; library: Spectrum,inactive: 0
COC(=O)[C@@H]1OC(=O)C2OC23[C@@]1(C)CCC1[C@@]2(C)CCC(=O)C(C)(C)C2C[C@@H](OC(C)=O)[C@]13C (stereo partly specified),neuronal differentiation score,[1]; library: Spectrum,inactive: 0
same,dopaminergic neuron differentiation score,[2]; library: Spectrum,inactive: 0
N#Cc1ccc(C2CCCc3cncn32)cc1 (stereo unspecified) [Fadrozole hydrochloride],neuronal differentiation score,[1]; library: Prestwick,inactive: 0
same,dopaminergic neuron differentiation score,[2]; library: Prestwick,inactive: 0
Cc1oc(=O)oc1CN1CCN(c2cc3c(cc2F)c(=O)c(C(=O)O)c2n3C(C)S2)CC1 (stereo unspecified),neuronal differentiation score,[1]; library: Spectrum,inactive: 0
same,dopaminergic neuron differentiation score,[2]; library: Spectrum,inactive: 0
CN(C)c1ccc(O)c2c1C[C@H]1C[C@H]3[C@H](N(C)C)C(O)=C(C(N)=O)C(=O)[C@@]3(O)C(O)=C1C2=O,neuronal differentiation score,[1]; library: Spectrum,inactive: 0
same,dopaminergic neuron differentiation score,[2]; library: Spectrum,inactive: 0
CCCCCCCCCCCC1=C(O)C(=O)C=C(O)C1=O [Embelin],neuronal differentiation score,[1]; library: Tocriscreen,inactive: 0
same,dopaminergic neuron differentiation score,[2]; library: Tocriscreen,inactive: 0
CCN1CCN(c2cc3c(cc2F)c(=O)c(C(=O)O)cn3C2CC2)CC1,neuronal differentiation score,[1]; library: Spectrum,inactive: 0
same,dopaminergic neuron differentiation score,[2]; library: Spectrum,inactive: 0
"COC(=O)/C=C/c1cc(O)ccc1O [Methyl 2,5-dihydroxycinnamate]",neuronal differentiation score,[1]; library: Tocriscreen,inactive: 0
same,dopaminergic neuron differentiation score,[2]; library: Tocriscreen,inactive: 0
CC(C)CC(NC(=O)[C@H](C)N)C(=O)O (mixture of isomers),neuronal differentiation score,[1]; library: Spectrum,inactive: 0
same,dopaminergic neuron differentiation score,[2]; library: Spectrum,inactive: 0
Cc1cc(O)cc2c1C(=O)Oc1cc3c(c(O)c1O2)C(=O)OC3 [Variolaric acid],neuronal differentiation score,[1]; library: Phytochemical,inactive: 0
same,dopaminergic neuron differentiation score,[2]; library: Phytochemical,inactive: 0
Cn1cnc([N+](=O)[O-])c1Sc1ncnc2[nH]cnc12,neuronal differentiation score,[1]; library: Spectrum,inactive: 0
same,dopaminergic neuron differentiation score,[2]; library: Spectrum,inactive: 0
CN(C)[C@@H]1C(O)=C(C(N)=O)C(=O)[C@@]2(O)C(O)=C3C(=O)c4c(O)cccc4[C@@](C)(O)[C@H]3C[C@@H]12,neuronal differentiation score,[1]; library: Spectrum,inactive: 0
same,dopaminergic neuron differentiation score,[2]; library: Spectrum,inactive: 0
CC[C@H](C)C(=O)O[C@H]1C[C@H](O)C=C2C=C[C@H](C)[C@H](CC[C@@H](O)C[C@@H](O)CC(=O)O)[C@H]21 [Pravastatin sodium salt],neuronal differentiation score,[1]; library: Tocriscreen,inactive: 0
same,dopaminergic neuron differentiation score,[2]; library: Tocriscreen,inactive: 0
CCc1cccc(N(C)C(=N)Nc2cccc3ccccc23)c1,neuronal differentiation score,[1]; library: LOPAC,inactive: -1
same,dopaminergic neuron differentiation score,[2]; library: LOPAC,inactive: 0
Nc1ncnc2c1ncn2C1CCCC1 [9-cyclopentyladenine],neuronal differentiation score,[1]; library: LOPAC,inactive: 0
same,dopaminergic neuron differentiation score,[2]; library: LOPAC,inactive: 0
Nc1nc(=O)c2nc(CNc3ccc(C(=O)N[C@@H](CCC(=O)O)C(=O)O)cc3)cnc2[nH]1 [Folic acid],neuronal differentiation score,[1]; library: Prestwick,inactive: 0
same,dopaminergic neuron differentiation score,[2]; library: Prestwick,inactive: 0
CC(NCCC(c1ccccc1)c1ccccc1)c1ccccc1 (stereo unspecified),neuronal differentiation score,[1]; library: Spectrum,inactive: 0
same,dopaminergic neuron differentiation score,[2]; library: Spectrum,inactive: 0
CCOc1ccc(NC(C)=O)cc1 [Phenacetin],neuronal differentiation score,[1]; library: Prestwick,inactive: 0
same,dopaminergic neuron differentiation score,[2]; library: Prestwick,inactive: 0
NCCCC(O)(P(=O)(O)O)P(=O)(O)O,neuronal differentiation score,[1]; library: Spectrum,inactive: 1
same,dopaminergic neuron differentiation score,[2]; library: Spectrum,inactive: 1

# Three entries from above, as tab-separated lines.
smiles	measurement	setting	value
CCCCCN(C)CCC(O)(P(=O)(O)O)P(=O)(O)O	neuronal differentiation score	[1]; library: Spectrum	inactive: 0
same	dopaminergic neuron differentiation score	[2]; library: Spectrum	inactive: 0
CC1CC(OC(=O)C(O)c2ccccc2)CC(C)(C)N1C (stereo unspecified) [Eucatropine hydrochloride]	neuronal differentiation score	[1]; library: Prestwick	inactive: 0
